# Measured values as given in patent US9517222B2, “Method for the treatment of senile dementia of the Alzheimer's type” (Phenomenome Discoveries Inc., priority 2007, dated 2016).
# Where no unit stands, none is given here, and values compare only within one read-out.
# Legend:
# [1] = Serum ethanolamine phospholipid levels in human cohorts (dementia severity, post-mortem pathology, age) by flow-injection MS/MS
# [2] = Serum ethanolamine phospholipid ratios to PtdEt 16:0/18:0 (M01) in human cohorts
# [3] = serum, females, post mortem SDAT
# [4] = serum, females, post mortem control
compound,measurement,setting,value
"CC/C=C\C/C=C\C/C=C\C/C=C\C/C=C\C/C=C\CCC(=O)OC(CO/C=C\CCCCCCCCCCCCCCCC)COP(=O)(O)OCCN (centres unmarked) [Metabolite M24, Plasmenyl 18:0/22:6]",Ratio of serum levels,"[1]; AD, All to CN, Male",0.680
same,Ratio of serum levels,"[1]; ADAS 5-19 to CN, Male",0.777
same,Ratio of serum levels,"[1]; ADAS 20-39 to 5-19, Male",0.833
same,Ratio of serum levels,"[1]; ADAS 20-39 to CN, Male",0.647
same,Ratio of serum levels,"[1]; ADAS 40-70 to 5-19, Male",0.674
same,Ratio of serum levels,"[1]; ADAS 40-70 to 20-39, Male",0.810
same,Ratio of serum levels,"[1]; ADAS 40-70 to CN, Male",0.524
same,"Serum level, Mean","[1]; Cognitive Normal, Female",0.103
same,"Average serum level, Mean","[1]; Cognitive Normal, Male",0.116
same,"Serum level, Mean","[1]; Post Mortem Ctl, Male",0.029
same,"Serum level, Mean",[1]; Post Mortem SDAT Male,0.013
same,Ratio of serum levels,"[1]; Post mortem SDAT vs Control, Male",0.448
same,"Serum level, Mean","[1]; SDAT, ADAS 5-19, Female",0.079
same,"Average serum level, Mean","[1]; SDAT, ADAS 5-19, Male",0.090
same,"Serum level, Mean","[1]; SDAT, ADAS 20-39, Female",0.073
same,"Average serum level, Mean","[1]; SDAT, ADAS 20-39, Male",0.075
same,"Serum level, Mean","[1]; SDAT, ADAS 40-70, Female",0.067
same,"Average serum level, Mean","[1]; SDAT, ADAS 40-70, Male",0.061
same,"Serum level, Mean","[1]; SDAT_all, Female",0.073
same,"Average serum level, Mean","[1]; SDAT_all, Male",0.079
same,"Ratio, ADAS 5-19 to CN, Female","[1]; serum level ratio, females, ADAS 5-19 vs CN",0.768
same,"Ratio, ADAS 20-39 to 5-19, Female","[1]; serum level ratio, females, ADAS 20-39 vs ADAS 5-19",0.928
same,"Ratio, ADAS 20-39 to CN, Female","[1]; serum level ratio, females, ADAS 20-39 vs CN",0.713
same,"Ratio, ADAS 40-70 to 5-19, Female","[1]; serum level ratio, females, ADAS 40-70 vs ADAS 5-19",0.852
same,"Ratio, ADAS 40-70 to 20-39, Female","[1]; serum level ratio, females, ADAS 40-70 vs ADAS 20-39",0.918
same,"Ratio, ADAS 40-70 to CN, Female","[1]; serum level ratio, females, ADAS 40-70 vs CN",0.654
same,"Ratio, 50-59 vs. 40-49, Female","[1]; serum level ratio, females, age 50-59 vs 40-49",0.957
same,"Ratio, 60-69 vs. 40-49, Female","[1]; serum level ratio, females, age 60-69 vs 40-49",0.871
same,"Ratio, 70+ vs. 40-49, Female","[1]; serum level ratio, females, age 70+ vs 40-49",1.040
same,"Ratio, AD, All to CN, Female","[1]; serum level ratio, females, all AD vs cognitively normal",0.708
same,"Ratio, Autopsy AD vs. Control, Female","[1]; serum level ratio, females, autopsy AD vs control",0.496
same,"Ratio, 50-59 vs. 40-49, Male","[1]; serum level ratio, males, age 50-59 vs 40-49",1.365
same,"Ratio, 60-69 vs. 40-49, Male","[1]; serum level ratio, males, age 60-69 vs 40-49",1.403
same,"Ratio, 70+ vs. 40-49, Male","[1]; serum level ratio, males, age 70+ vs 40-49",1.642
same,"Mean serum level, Age Ctl, 30-39, Female","[1]; serum, females, age 30-39",0.102
same,"Mean serum level, Age Ctl, 40-49, Female","[1]; serum, females, age 40-49",0.093
same,"Mean serum level, Age Ctl, 50-59, Female","[1]; serum, females, age 50-59",0.089
same,"Mean serum level, Age Ctl, 60-69, Female","[1]; serum, females, age 60-69",0.081
same,"Mean serum level, Age Ctl, 70+, Female","[1]; serum, females, age 70+",0.096
same,"Mean serum level, Post Mortem SDAT, Female",[1]; [3],0.018
same,"Mean serum level, Post Mortem Ctl, Female",[1]; [4],0.035
same,"Mean serum level, Age Ctl, 30-39, Male","[1]; serum, males, age 30-39",0.077
same,"Mean serum level, Age Ctl, 40-49, Male","[1]; serum, males, age 40-49",0.063
same,"Mean serum level, Age Ctl, 50-59, Male","[1]; serum, males, age 50-59",0.086
same,"Mean serum level, Age Ctl, 60-69, Male","[1]; serum, males, age 60-69",0.088
same,"Mean serum level, Age Ctl, 70+, Male","[1]; serum, males, age 70+",0.103
same,Ratio of ethanolamine phospholipid ratios to M01 between cohorts,"[2]; AD, All to CN, Male",0.665
same,Ratio of ethanolamine phospholipid ratios to M01 between cohorts,"[2]; ADAS 5-19 to CN, Male",0.763
same,Ratio of ethanolamine phospholipid ratios to M01 between cohorts,"[2]; ADAS 20-39 to CN, Male",0.641
same,Ratio of ethanolamine phospholipid ratios to M01 between cohorts,"[2]; ADAS 40-70 to CN, Male",0.533
same,"Average serum ethanolamine phospholipid ratio to M01, Mean","[2]; Cognitive Normal, Male, serum",1.010
same,"Average serum ethanolamine phospholipid ratio to M01, Mean","[2]; SDAT, ADAS 5-19, Male, serum",0.770
same,"Average serum ethanolamine phospholipid ratio to M01, Mean","[2]; SDAT, ADAS 20-39, Male, serum",0.647
same,"Average serum ethanolamine phospholipid ratio to M01, Mean","[2]; SDAT, ADAS 40-70, Male, serum",0.539
same,"Average serum ethanolamine phospholipid ratio to M01, Mean","[2]; SDAT_all, Male, serum",0.672
same,"Ethanolamine Phospholipid Ratio to M01, Mean, Age Ctl, 30-39, Female","[2]; human serum, females aged 30-39",0.955
same,"Ethanolamine Phospholipid Ratio to M01, Mean, Age Ctl, 40-49, Female","[2]; human serum, females aged 40-49",0.834
same,"Ethanolamine Phospholipid Ratio to M01, Mean, Age Ctl, 50-59, Female","[2]; human serum, females aged 50-59",0.882
same,"Ratio of Ethanolamine Phospholipid Ratio to M01, 50-59 vs. 40-49, Female","[2]; human serum, females aged 50-59 vs. females aged 40-49",1.058
same,"Ethanolamine Phospholipid Ratio to M01, Mean, Age Ctl, 60-69, Female","[2]; human serum, females aged 60-69",0.661
same,"Ratio of Ethanolamine Phospholipid Ratio to M01, 60-69 vs. 40-49, Female","[2]; human serum, females aged 60-69 vs. females aged 40-49",0.793
same,"Ethanolamine Phospholipid Ratio to M01, Mean, Age Ctl, 70+_Female","[2]; human serum, females aged 70+",0.814
same,"Ratio of Ethanolamine Phospholipid Ratio to M01, 70+ vs. 40-49, Female","[2]; human serum, females aged 70+ vs. females aged 40-49",0.976
same,"Ratio of Ethanolamine Phospholipid Ratio to M01, 50-59 vs. 40-49, Male","[2]; human serum, males aged 50-59 vs. males aged 40-49",1.300
same,"Ratio of Ethanolamine Phospholipid Ratio to M01, 60-69 vs. 40-49, Male","[2]; human serum, males aged 60-69 vs. males aged 40-49",1.156
same,"Ratio of Ethanolamine Phospholipid Ratio to M01, 70+ vs. 40-49, Male","[2]; human serum, males aged 70+ vs. males aged 40-49",1.319
same,"Ratio of ethanolamine phospholipid ratio to M01, ADAS 5-19 to CN, Female","[2]; serum, females, ADAS 5-19 vs cognitive normal",0.811
same,"Ratio of ethanolamine phospholipid ratio to M01, ADAS 20-39 to 5-19, Female","[2]; serum, females, ADAS 20-39 vs ADAS 5-19",0.925
same,"Ratio of ethanolamine phospholipid ratio to M01, ADAS 20-39 to CN, Female","[2]; serum, females, ADAS 20-39 vs cognitive normal",0.750
same,"Ratio of ethanolamine phospholipid ratio to M01, ADAS 40-70 to 5-19, Female","[2]; serum, females, ADAS 40-70 vs ADAS 5-19",0.791
same,"Ratio of ethanolamine phospholipid ratio to M01, ADAS 40-70 to 20-39, Female","[2]; serum, females, ADAS 40-70 vs ADAS 20-39",0.856
same,"Ratio of ethanolamine phospholipid ratio to M01, ADAS 40-70 to CN, Female","[2]; serum, females, ADAS 40-70 vs cognitive normal",0.642
same,"Ethanolamine phospholipid ratio to M01, Mean, SDAT, ADAS 5-19, Female","[2]; serum, females, SDAT ADAS 5-19",0.724
same,"Ethanolamine phospholipid ratio to M01, Mean, SDAT, ADAS 20-39, Female","[2]; serum, females, SDAT ADAS 20-39",0.669
same,"Ethanolamine phospholipid ratio to M01, Mean, SDAT, ADAS 40-70, Female","[2]; serum, females, SDAT ADAS 40-70",0.573
same,"Ratio of ethanolamine phospholipid ratio to M01, AD, All to CN, Female","[2]; serum, females, all AD vs cognitive normal",0.729
same,"Ethanolamine phospholipid ratio to M01, Mean, SDAT_all Female","[2]; serum, females, all SDAT",0.651
same,"Ratio of ethanolamine phospholipid ratio to M01, Autopsy AD vs. Control, Female","[2]; serum, females, autopsy AD vs post mortem control",0.697
same,"Ethanolamine phospholipid ratio to M01, Mean, Cognitive Normal, Female","[2]; serum, females, cognitive normal",0.893
same,"Ethanolamine phospholipid ratio to M01, Mean, Post Mortem SDAT Female",[2]; [3],0.149
same,"Ethanolamine phospholipid ratio to M01, Mean, Post Mortem Ctl, Female",[2]; [4],0.214
same,"Ratio of ethanolamine phospholipid ratio to M01, ADAS 20-39 to 5-19, Male","[2]; serum, males, SDAT ADAS 20-39 vs ADAS 5-19",0.840
same,"Ratio of ethanolamine phospholipid ratio to M01, ADAS 40-70 to 5-19, Male","[2]; serum, males, SDAT ADAS 40-70 vs ADAS 5-19",0.699
same,"Ratio of ethanolamine phospholipid ratio to M01, ADAS 40-70 to 20-39, Male","[2]; serum, males, SDAT ADAS 40-70 vs ADAS 20-39",0.832
same,"Ethanolamine phospholipid ratio to M01, Mean, Age Ctl, 30-39, Male","[2]; serum, males, age control 30-39",0.649
same,"Ethanolamine phospholipid ratio to M01, Mean, Age Ctl, 40-49, Male","[2]; serum, males, age control 40-49",0.606
same,"Ethanolamine phospholipid ratio to M01, Mean, Age Ctl, 50-59, Male","[2]; serum, males, age control 50-59",0.787
same,"Ethanolamine phospholipid ratio to M01, Mean, Age Ctl, 60-69, Male","[2]; serum, males, age control 60-69",0.700
same,"Ethanolamine phospholipid ratio to M01, Mean, Age Ctl, 70+_Male","[2]; serum, males, age control 70+",0.799
same,"Ethanolamine phospholipid ratio to M01, Mean, Post Mortem SDAT Male","[2]; serum, males, post mortem SDAT",0.142
same,"Ratio of ethanolamine phospholipid ratio to M01, SDAT vs Control (post mortem, males)","[2]; serum, males, post mortem SDAT vs post mortem control",0.588
same,"Ethanolamine phospholipid ratio to M01, Mean, Post Mortem Ctl, Male","[2]; serum, males, post mortem control",0.241
